This passage reports binding results from article doi:10.1101/2023.08.22.554280.

Amino acid sequences for entries named in this document (tags omitted).
UniProt Q8N3C0: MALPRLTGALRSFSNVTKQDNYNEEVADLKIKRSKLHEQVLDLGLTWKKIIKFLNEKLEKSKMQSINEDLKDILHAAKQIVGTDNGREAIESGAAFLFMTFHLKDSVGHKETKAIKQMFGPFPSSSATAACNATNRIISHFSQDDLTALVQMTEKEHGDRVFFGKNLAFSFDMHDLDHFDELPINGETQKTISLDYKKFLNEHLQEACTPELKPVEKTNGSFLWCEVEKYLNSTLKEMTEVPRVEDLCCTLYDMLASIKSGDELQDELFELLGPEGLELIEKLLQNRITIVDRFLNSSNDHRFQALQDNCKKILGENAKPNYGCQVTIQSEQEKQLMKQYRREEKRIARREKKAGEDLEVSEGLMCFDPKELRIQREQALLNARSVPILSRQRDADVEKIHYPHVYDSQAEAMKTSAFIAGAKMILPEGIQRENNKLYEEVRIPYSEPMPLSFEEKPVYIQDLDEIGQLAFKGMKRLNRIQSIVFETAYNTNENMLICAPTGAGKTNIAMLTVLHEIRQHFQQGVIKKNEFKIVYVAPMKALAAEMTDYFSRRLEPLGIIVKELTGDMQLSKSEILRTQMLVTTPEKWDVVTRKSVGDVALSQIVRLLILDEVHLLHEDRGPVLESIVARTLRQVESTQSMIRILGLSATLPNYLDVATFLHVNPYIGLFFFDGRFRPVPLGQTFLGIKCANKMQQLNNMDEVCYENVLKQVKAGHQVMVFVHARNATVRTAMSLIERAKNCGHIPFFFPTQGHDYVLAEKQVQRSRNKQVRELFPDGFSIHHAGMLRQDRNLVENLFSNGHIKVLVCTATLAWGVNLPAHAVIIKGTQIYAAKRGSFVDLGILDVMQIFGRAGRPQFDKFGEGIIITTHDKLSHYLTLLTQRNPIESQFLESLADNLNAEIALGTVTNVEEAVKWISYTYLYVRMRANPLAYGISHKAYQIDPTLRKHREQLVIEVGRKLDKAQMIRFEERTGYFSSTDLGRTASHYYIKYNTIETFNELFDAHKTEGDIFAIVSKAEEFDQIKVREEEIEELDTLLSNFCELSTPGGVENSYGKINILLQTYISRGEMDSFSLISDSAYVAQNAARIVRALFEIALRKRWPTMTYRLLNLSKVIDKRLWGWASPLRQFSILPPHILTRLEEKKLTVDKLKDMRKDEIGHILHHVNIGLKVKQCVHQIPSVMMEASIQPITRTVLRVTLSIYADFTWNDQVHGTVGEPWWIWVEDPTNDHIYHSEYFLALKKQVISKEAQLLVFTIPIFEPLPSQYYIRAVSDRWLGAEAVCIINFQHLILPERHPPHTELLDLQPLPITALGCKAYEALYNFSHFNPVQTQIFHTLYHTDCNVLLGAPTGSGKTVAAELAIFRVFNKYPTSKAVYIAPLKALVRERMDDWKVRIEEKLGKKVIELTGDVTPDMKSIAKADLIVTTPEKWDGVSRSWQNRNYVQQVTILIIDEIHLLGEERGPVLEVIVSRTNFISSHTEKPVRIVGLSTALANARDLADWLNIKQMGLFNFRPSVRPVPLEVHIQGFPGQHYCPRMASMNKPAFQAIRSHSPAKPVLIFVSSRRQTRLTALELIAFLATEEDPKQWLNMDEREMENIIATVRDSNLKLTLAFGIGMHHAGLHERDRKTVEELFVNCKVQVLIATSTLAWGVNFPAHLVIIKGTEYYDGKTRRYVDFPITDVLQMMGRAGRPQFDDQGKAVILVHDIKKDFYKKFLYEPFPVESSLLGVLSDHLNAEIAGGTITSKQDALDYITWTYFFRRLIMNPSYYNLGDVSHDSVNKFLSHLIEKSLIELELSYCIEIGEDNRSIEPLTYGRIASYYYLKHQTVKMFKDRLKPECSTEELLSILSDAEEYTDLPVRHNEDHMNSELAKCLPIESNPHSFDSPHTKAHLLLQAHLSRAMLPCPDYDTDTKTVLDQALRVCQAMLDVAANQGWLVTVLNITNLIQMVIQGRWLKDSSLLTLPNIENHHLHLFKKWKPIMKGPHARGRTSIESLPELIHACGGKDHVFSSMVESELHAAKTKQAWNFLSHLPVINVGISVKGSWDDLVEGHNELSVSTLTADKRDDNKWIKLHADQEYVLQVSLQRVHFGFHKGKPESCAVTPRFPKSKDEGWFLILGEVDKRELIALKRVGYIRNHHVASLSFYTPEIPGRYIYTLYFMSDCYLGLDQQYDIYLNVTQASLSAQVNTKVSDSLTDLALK
UniProt Q9Y520: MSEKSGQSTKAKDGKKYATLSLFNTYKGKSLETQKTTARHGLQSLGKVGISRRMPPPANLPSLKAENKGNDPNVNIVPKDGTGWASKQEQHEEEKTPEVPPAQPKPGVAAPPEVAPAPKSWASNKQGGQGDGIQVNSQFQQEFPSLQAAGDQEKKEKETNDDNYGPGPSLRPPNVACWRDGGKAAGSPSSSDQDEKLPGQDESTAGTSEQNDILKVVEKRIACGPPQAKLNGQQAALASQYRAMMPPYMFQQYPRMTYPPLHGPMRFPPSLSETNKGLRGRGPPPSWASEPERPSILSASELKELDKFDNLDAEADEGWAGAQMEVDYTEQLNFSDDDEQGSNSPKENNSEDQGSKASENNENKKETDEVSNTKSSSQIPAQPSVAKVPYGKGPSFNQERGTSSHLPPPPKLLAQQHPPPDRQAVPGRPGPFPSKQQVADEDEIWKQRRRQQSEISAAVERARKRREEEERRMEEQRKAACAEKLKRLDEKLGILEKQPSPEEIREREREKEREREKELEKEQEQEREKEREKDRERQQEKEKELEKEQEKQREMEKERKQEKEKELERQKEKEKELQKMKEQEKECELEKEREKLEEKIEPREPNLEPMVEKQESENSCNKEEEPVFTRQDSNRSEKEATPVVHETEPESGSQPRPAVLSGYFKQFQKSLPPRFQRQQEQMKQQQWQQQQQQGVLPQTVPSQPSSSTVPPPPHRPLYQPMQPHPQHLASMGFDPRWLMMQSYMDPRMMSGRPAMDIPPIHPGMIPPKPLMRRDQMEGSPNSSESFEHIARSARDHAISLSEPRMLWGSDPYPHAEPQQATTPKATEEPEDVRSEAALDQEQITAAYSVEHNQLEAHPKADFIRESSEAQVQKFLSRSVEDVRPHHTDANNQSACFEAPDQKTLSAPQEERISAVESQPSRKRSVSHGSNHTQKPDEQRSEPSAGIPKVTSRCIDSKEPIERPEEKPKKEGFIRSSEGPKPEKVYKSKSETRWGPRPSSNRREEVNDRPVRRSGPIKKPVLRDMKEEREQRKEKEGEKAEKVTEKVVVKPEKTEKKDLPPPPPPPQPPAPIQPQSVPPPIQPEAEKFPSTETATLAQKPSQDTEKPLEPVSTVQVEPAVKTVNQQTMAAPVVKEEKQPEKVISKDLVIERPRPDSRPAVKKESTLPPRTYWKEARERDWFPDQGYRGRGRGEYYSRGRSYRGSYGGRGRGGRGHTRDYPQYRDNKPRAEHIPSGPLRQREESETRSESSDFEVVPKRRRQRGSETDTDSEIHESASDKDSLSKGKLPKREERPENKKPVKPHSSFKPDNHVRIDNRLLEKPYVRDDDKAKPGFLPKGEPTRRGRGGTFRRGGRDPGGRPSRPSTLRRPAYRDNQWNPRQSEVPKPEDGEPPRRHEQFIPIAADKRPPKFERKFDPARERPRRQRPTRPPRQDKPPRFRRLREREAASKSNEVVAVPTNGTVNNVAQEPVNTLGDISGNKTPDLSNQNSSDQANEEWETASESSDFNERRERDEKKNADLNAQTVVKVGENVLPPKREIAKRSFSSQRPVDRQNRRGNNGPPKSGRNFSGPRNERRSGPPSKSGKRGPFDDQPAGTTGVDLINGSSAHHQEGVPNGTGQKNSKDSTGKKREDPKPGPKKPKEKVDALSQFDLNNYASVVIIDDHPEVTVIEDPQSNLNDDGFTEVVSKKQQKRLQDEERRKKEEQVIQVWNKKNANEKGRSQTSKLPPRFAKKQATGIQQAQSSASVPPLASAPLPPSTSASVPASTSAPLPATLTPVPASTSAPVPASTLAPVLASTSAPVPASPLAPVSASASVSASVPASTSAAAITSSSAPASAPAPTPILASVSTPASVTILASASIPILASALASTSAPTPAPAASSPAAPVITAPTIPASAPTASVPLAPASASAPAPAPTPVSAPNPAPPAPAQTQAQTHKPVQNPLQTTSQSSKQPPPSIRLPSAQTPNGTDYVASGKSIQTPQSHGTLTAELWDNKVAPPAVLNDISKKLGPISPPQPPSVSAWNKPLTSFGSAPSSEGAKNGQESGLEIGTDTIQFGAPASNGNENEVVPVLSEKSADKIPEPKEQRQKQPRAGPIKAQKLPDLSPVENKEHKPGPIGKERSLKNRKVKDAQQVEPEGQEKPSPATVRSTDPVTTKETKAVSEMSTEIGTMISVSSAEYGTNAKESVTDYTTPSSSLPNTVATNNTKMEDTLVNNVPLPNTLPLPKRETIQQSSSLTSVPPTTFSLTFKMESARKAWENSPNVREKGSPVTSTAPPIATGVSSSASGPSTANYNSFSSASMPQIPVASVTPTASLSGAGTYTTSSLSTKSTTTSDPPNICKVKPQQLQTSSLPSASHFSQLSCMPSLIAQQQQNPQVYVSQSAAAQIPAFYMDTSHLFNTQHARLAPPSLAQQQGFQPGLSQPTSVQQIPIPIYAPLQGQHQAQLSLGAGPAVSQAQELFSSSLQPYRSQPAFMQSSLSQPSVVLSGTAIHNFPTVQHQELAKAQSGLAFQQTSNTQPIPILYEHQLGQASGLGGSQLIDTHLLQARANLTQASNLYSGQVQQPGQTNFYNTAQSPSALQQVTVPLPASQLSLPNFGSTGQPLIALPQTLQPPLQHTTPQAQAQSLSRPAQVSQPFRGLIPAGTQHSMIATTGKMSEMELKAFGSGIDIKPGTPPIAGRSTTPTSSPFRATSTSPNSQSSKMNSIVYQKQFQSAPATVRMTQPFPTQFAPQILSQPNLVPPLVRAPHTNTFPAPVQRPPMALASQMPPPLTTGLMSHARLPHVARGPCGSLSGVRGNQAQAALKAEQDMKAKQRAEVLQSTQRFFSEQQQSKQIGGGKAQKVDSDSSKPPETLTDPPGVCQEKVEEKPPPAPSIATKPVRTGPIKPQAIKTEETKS
UniProt Q86US8: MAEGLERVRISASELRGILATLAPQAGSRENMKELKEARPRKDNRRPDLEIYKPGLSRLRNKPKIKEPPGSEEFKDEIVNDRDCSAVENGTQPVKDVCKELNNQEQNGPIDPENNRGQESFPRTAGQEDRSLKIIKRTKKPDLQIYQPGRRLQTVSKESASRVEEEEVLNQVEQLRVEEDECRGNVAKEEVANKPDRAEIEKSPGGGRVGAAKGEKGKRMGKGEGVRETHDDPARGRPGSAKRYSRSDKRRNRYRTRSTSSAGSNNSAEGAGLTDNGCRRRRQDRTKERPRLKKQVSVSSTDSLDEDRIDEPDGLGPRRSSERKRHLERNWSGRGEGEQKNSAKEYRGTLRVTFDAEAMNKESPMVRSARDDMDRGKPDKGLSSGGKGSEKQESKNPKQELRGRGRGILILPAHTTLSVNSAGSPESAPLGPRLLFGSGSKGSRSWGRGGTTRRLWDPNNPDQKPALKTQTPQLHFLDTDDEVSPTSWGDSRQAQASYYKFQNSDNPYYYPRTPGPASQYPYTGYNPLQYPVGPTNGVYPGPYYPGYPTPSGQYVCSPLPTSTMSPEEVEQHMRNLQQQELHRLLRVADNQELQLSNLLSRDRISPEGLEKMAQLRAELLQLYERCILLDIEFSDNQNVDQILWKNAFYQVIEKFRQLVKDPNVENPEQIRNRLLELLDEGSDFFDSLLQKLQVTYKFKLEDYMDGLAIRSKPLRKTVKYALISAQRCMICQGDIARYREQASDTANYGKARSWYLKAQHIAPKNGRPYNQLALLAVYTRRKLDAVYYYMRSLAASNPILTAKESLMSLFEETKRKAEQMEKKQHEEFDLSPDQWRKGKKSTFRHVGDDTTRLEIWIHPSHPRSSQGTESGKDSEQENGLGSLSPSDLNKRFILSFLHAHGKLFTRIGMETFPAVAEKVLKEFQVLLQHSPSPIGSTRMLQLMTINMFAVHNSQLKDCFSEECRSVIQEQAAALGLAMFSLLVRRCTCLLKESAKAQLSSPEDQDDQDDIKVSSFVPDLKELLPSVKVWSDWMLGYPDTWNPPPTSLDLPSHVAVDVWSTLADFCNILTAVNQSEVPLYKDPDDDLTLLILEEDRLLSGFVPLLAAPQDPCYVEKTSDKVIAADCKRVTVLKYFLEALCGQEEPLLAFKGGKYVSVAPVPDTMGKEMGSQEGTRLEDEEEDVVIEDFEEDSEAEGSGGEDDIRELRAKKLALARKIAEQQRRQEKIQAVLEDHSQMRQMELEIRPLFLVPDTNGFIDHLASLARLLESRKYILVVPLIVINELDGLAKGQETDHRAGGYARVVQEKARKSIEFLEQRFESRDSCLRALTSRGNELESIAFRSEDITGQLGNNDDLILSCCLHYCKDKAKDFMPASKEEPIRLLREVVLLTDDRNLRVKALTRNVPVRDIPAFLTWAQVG

Results are given in words; binding and its absence hold for the method and conditions named. Binding seen in cells or lysates may run through a third protein. These calls come from enrichment with a bait or labelling near it, and not all partners need be listed. For some assays here: Tags and fused reporters may be left off the sequences shown.

T1: Flag-tagged EIF4G2 WT (human), P78344
T1 chain: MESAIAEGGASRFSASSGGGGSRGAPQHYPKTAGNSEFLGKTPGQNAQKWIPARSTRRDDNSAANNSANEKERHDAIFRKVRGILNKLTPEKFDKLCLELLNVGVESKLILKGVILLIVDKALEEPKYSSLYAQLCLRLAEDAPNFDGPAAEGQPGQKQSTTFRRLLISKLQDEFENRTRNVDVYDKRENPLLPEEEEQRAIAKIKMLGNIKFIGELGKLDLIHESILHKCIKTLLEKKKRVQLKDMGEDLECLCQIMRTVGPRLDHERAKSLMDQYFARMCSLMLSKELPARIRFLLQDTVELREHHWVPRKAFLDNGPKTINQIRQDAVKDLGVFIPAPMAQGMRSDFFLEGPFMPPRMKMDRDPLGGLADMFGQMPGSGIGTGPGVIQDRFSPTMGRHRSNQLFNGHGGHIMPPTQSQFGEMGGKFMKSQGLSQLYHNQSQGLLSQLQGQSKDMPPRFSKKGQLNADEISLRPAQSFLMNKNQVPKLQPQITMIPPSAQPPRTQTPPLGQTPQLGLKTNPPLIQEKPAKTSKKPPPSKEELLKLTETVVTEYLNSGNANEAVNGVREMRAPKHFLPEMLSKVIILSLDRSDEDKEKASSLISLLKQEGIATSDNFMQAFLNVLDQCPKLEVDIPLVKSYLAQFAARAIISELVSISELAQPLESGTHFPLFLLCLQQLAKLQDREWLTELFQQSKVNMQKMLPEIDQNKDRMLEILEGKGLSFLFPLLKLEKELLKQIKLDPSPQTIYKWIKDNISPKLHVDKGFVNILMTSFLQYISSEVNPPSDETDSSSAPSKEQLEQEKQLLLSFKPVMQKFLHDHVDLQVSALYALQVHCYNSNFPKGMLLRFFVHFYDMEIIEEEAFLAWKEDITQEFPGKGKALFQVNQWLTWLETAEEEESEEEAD

B1: PDCD4, Q53EL6 1-469 (protein)
chain: MDVENEQILNVNPADPDNLSDSLFSGDEENAGTEEIKNEINGNWISASSINEARINAKAKRRLRKNSSRDSGRGDSVSDSGSDALRSGLTVPTSPKGRLLDRRSRSGKGRGLPKKGGAGGKGVWGTPGQVYDVEEVDVKDPNYDDDQENCVYETVVLPLDERAFEKTLTPIIQEYFEHGDTNEVAEMLRDLNLGEMKSGVPVLAVSLALEGKASHREMTSKLLSDLCGTVMSTTDVEKSFDKLLKDLPELALDTPRAPQLVGQFIARAVGDGILCNTYIDSYKGTVDCVQARAALDKATVLLSMSKGGKRKDSVWGSGGGQQSVNHLVKEIDMLLKEYLLSGDISEAEHCLKELEVPHFHHELVYEAIIMVLESTGESTFKMILDLLKSLWKSSTITVDQMKRGYERIYNEIPDINLDVPHSYSVLERFVEECFQAGIISKQLRDLCPSRGRKRFVSEGDGGRLKPESY
B2: ASCC2 (protein, UniProt Q9H1I8 1-757)
chain: MPALPLDQLQITHKDPKTGKLRTSPALHPEQKADRYFVLYKPPPKDNIPALVEEYLERATFVANDLDWLLALPHDKFWCQVIFDETLQKCLDSYLRYVPRKFDEGVASAPEVVDMQKRLHRSVFLTFLRMSTHKESKDHFISPSAFGEILYNNFLFDIPKILDLCVLFGKGNSPLLQKMIGNIFTQQPSYYSDLDETLPTILQVFSNILQHCGLQGDGANTTPQKLEERGRLTPSDMPLLELKDIVLYLCDTCTTLWAFLDIFPLACQTFQKHDFCYRLASFYEAAIPEMESAIKKRRLEDSKLLGDLWQRLSHSRKKLMEIFHIILNQICLLPILESSCDNIQGFIEEFLQIFSSLLQEKRFLRDYDALFPVAEDISLLQQASSVLDETRTAYILQAVESAWEGVDRRKATDAKDPSVIEEPNGEPNGVTVTAEAVSQASSHPENSEEEECMGAAAAVGPAMCGVELDSLISQVKDLLPDLGEGFILACLEYYHYDPEQVINNILEERLAPTLSQLDRNLDREMKPDPTPLLTSRHNVFQNDEFDVFSRDSVDLSRVHKGKSTRKEENTRSLLNDKRAVAAQRQRYEQYSVVVEEVPLQPGESLPYHSVYYEDEYDDTYDGNQVGANDADSDDELISRRPFTIPQVLRTKVPREGQEEDDDDEEDDADEEAPKPDHFVQDPAVLREKAEARRMAFLAKKGYRHDSSTAVAGSPRGHGQSRETTQERRKKEANKATRANHNRRTMADRKRSKGMIPS
B3: TSR1 (protein, UniProt Q2NL82 1-804)
chain: MAAHRPGPLKQQNKAHKGGRHRGRGSAQRDGKGRLALKTLSKKVRKELSRVDQRHRASQLRKQKKEAVLAEKRQLGGKDGPPHQVLVVPLHSRISLPEAMQLLQDRDTGTVHLNELGNTQNFMLLCPRLKHRWFFTSARPGDLHVVLDMAKVADTILFLLDPLEGWDSTGDYCLSCLFAQGLPTYTLAVQGISGLPLKKQIDTRKKLSKAVEKRFPHDKLLLLDTQQEAGMLLRQLANQKQQHLAFRDRRAYLFAHAVDFVPSEENNLVGTLKISGYVRGQTLNVNRLLHIVGYGDFQMKQIDAPGDPFPLNPRGIKPQKDPDMAMEICATDAVDDMEEGLKVLMKADPGRQESLQAEVIPDPMEGEQTWPTEEELSEAKDFLKESSKVVKKVPKGTSSYQAEWILDGGSQSGGEGDEYEYDDMEHEDFMEEESQDESSEEEEEYETMTIGESVHDDLYDKKVDEEAEAKMLEKYKQERLEEMFPDEVDTPRDVAARIRFQKYRGLKSFRTSPWDPKENLPQDYARIFQFQNFTNTRKSIFKEVEEKEVEGAEVGWYVTLHVSEVPVSVVECFRQGTPLIAFSLLPHEQKMSVLNMVVRRDPGNTEPVKAKEELIFHCGFRRFRASPLFSQHTAADKHKLQRFLTADMALVATVYAPITFPPASVLLFKQKSNGMHSLIATGHLMSVDPDRMVIKRVVLSGHPFKIFTKMAVVRYMFFNREDVLWFKPVELRTKWGRRGHIKEPLGTHGHMKCSFDGKLKSQDTVLMNLYKRVFPKWTYDPYVPEPVPWLKSEISSTVPQGGME

The first test addresses T1, Flag-tagged EIF4G2 WT (human), P78344. The experiment in a line: affinity purification with mass spectrometry. The note with it: remark: other sources report otherwise.
For the molecule B1, the binding entry was “binds”.

A further test has as its target Flag-tagged EIF4G2 WT (human) (UniProt P78344). Description: affinity purification with mass spectrometry.
Settings: not given
For the molecule ASCC3 (from UniProt Q8N3C0 1-2202), the binding result is listed as “binds”. The same measure, in the same setting: in the case of EIF3J (from UniProt O75822 1-258) it was “binds”; in that of PRRC2A (from UniProt P48634 1-2157), “binds”. Regarding PRRC2C (from UniProt Q9Y520 1-2896), the binding entry is given as “binds”. Same read-out and setting: in the case of SMG6 (from UniProt Q86US8 1-1419) it was “binds”; in that of B2, “binds”. Consider B3, for which the binding entry is “binds”.
